Reference: PubChem BioAssay AID463116 (University of Pittsburgh Molecular Library Screening Center, 2010)
The list shows a part of the results. These are further read-outs of the screen, such as a control signal, another cell line or another target. No call is given for them. The list favours compounds with an active or inconclusive main result.

Experiment: blockers of dexamethasone-driven GR-EGFP nuclear import – imaging, high-content imaging, GR-EGFP cells, confirmation (AID 463116)
Conditions: 3617.4 GR-EGFP nuclear translocation imaging, dexamethasone-induced; measured here: cell count per field; at 20 µM

| SMILES | z-score |
| --- | --- |
| CC(=O)n1cc(C(C[N+](=O)[O-])SCCN)c2ccccc21 (stereo unspecified) | 1.41 |
| COc1ccc(/C=C/C(=O)c2c(O)c(OC)c3occc3c2OC)cc1 | -0.0552 |
| O=c1c(Cl)c(Cl)cnn1Cc1nnc(-c2ccccc2Br)o1 | -0.574 |
| O=C(CCC(=O)Nc1ccc(Cl)cc1Cl)N/N=C/c1ccc([N+](=O)[O-])o1 | 0.696 |
| CCCC(=O)OCCNc1cc(SCCC(=O)OC)c2nonc2c1[N+](=O)[O-] | 0.158 |
| CCN1CCN(Cc2c(O)ccc3c2O/C(=C\C=C\c2ccccc2)C3=O)CC1 | 0.188 |
| CC(C)N1C/C(=C/c2ccsc2)C(=O)/C(=C/c2ccsc2)C1 | 0.35 |
| COc1ccc(/C=C\c2nc(=O)c3ccccc3o2)cc1 | 0.0205 |
| COc1cccc(N(C(=O)CCl)C(C(=O)NCCc2ccccc2)c2cccs2)c1 (stereo unspecified) | -0.138 |
| COc1cccc(F)c1C(C[N+](=O)[O-])c1c(N)n(C)c(=O)n(C)c1=O (stereo unspecified) | -0.863 |
| CC1(C)Cc2c(C#N)c(NC3CCCCC3)nc(-c3ccco3)c2CO1 | 0.171 |
| O=C(NC(=S)Nc1ccc(-c2ccc(CO)o2)cc1)c1cccs1 | 0.174 |
| CCn1c(=O)c([N+](=O)[O-])c(Cl)c2ccccc21 | 0.293 |
| CC(C)CCn1c(=O)c2ccccc2n2c(CCl)nnc12 | -0.545 |
| CN1CCN(C2=CC3=CC(=C(C#N)C#N)CCC3CC2)CC1 (stereo unspecified) | 0.0583 |
| O=C1ON=C(c2ccc(Cl)cc2)/C1=C/c1ccc(O)cc1 | -1.16 |
| O=C(NC1CCCC1)C(c1ccc(Cl)cc1)N(Cc1ccc(F)cc1)C(=O)CCl (stereo unspecified) | 0.14 |
| COc1ccc(/C=c2\s/c(=C/C(=O)c3ccc(C)cc3)[nH]c2=O)cc1OC | 0.302 |
| CC(=O)C(Cl)C(=O)Nc1ccccc1 (stereo unspecified) | 0.0532 |

| SMILES | z-score |
| --- | --- |
| N#Cc1ccc(-c2cccnc2)nc1SCC(=O)c1ccccc1 | -0.472 |
| CC(C)CC(=O)/C=C/n1c(=S)oc2ccccc21 | -0.302 |
| CCC(C)(C)C1CCc2[nH]nc(C(=O)N/N=C(\C)c3ccco3)c2C1 (stereo unspecified) | -0.642 |
| COc1ccc(NC(=O)c2oc3cc(C)c(C)cc3c2C)c(OC)c1 | 0.308 |
| CC(=O)c1ccc(Sc2nnnn2-c2ccccc2)c([N+](=O)[O-])c1 | 0.114 |
| c1ccc(-c2ccc(-c3nccc4ccccc34)[nH]2)cc1 | 0.0141 |
| CCN(CC)c1ccc(/C=C/C(=O)c2ccc(Br)cc2)cc1 | -0.263 |
| CCOC(=O)c1c2ccc(OCC(=O)N/N=C/c3ccc(Cl)cc3)cc2n2ccccc12 | 0.498 |
| CC(C(Sc1ccccc1N)c1ccccc1)[N+](=O)[O-] (stereo unspecified) | 0.383 |
| Cc1ccc(-n2nnnc2C(Cl)(Cl)c2nnnn2-c2ccc(C)cc2)cc1 | 0.693 |
| N#C/C(=C/c1ccc(N2CCOCC2)o1)c1ccc(Cl)cc1 | -0.269 |
| Cc1ccc(N(C(=O)CCl)C(C(=O)NC2CCCCC2)c2cccnc2)cc1C (stereo unspecified) | 0.533 |
| COc1ccc(CN(C)C(=O)CCl)cc1 | 0.629 |
| Nc1ccc(N2CCCCCC2)cc1 | -1.13 |
| N#Cc1cccc(N=c2ssnc2Cl)c1 | 0.209 |
| COc1ccc(NC(=O)C(Cl)=C(Cl)Cl)cn1 | -0.605 |
| COc1ccc(N/C=C/c2nc(SC)nnc2C)cc1 | -0.722 |
| CCOC(=O)C(=Cc1ccc(-n2ccnc2)cc1)C(=O)OCC | -0.35 |
| O=[N+]([O-])c1ccc(Sc2nnnn2-c2ccccc2)nc1 | 0.37 |

| SMILES | z-score |
| --- | --- |
| COCCCn1c(O)c(/C=C2\N=C(C#N)C(=Nc3ccc(C)cc3)O2)sc1=S | 0.475 |
| Cc1cc(Cl)n2c(nc3ccccc32)c1C#N | -0.146 |
| Cc1ccc2nc(Cl)c3cc(C(=O)N(CCN(C)C)Cc4ccco4)sc3c2c1 | -3.86 |
| Nc1c(C(=O)c2ccccc2)sc2nsc(SCCN3CCCC3)c12 | -0.367 |
| CCOC(=O)COc1ccc2ccccc2c1/C=C/[N+](=O)[O-] | -2.88 |
| Cc1cc(Oc2ccc(-c3ccccc3)cc2)n2ncnc2n1 | 0.251 |
| COc1cc(/C=C/[N+](=O)[O-])ccc1OCc1cccc(C(=O)O)c1 | -0.353 |
| CCOC(=O)CS(=O)(=O)c1nc(-c2ccc(F)cc2)cc(C(F)(F)F)n1 | -1.09 |
| C=CCn1c(Sc2ncc([N+](=O)[O-])s2)n[nH]c1=O | -0.113 |
| COc1ccc([N+](=O)[O-])c(S(=O)(=O)c2ccccc2)n1 | -0.996 |
| COc1ccc(-c2cccc([C@H]3[C@@H]4C=CCC[C@@]4(C)C(=O)N3Cc3ccccc3)c2)cc1 | 0.123 |
| CCCCn1c(CCC)nc([N+](=O)[O-])c1Sc1ccc(Cl)cn1 | 0.503 |
| Cc1c(N=C2C=CC(=O)c3ccccc32)c(=O)n(-c2ccccc2)n1C | -0.176 |
| Cc1cc(C(=O)CCl)c(C)n1-c1ccon1 | 0.778 |
| O=C(OCn1ncc(Br)c(Br)c1=O)c1ccc(F)cc1 | 0.531 |
| Cn1cc(Br)c(NC(=O)/C=C/C(=O)O)n1 | 0.395 |
| CCCC(=O)N1CCN(c2ccc(NC(=O)c3ccc([N+](=O)[O-])o3)cc2Cl)CC1 | 0.517 |
| O=C1N=C2N(CCN3CCCCC3)c3ccccc3N2/C1=C\c1ccc([N+](=O)[O-])o1 | 0.0331 |
